No constants are given. Whether binding was seen depends on the method and setting. In cells and extracts the contact can be indirect. Some entries that bind do so weakly or less than the wild type.
Target: T1, BATF (mouse (endogenous in Treg cells of Foxp3^hCD2 mice)) (UniProt O35284)
T1 sequence: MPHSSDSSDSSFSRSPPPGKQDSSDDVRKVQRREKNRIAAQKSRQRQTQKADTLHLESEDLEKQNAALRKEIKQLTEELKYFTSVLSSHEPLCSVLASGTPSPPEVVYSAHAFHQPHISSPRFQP
Assay: co-IP

B1: Foxp3 (protein, UniProt Q99JB6 1-417)
chain: MPNPRPAKPMAPSLALGPSPGVLPSWKTAPKGSELLGTRGSGGPFQGRDLRSGAHTSSSLNPLPPSQLQLPTVPLVMVAPSGARLGPSPHLQALLQDRPHFMHQLSTVDAHAQTPVLQVRPLDNPAMISLPPPSAATGVFSLKARPGLPPGINVASLEWVSREPALLCTFPRSGTPRKDSNLLAAPQGSYPLLANGVCKWPGCEKVFEEPEEFLKHCQADHLLDEKGKAQCLLQREVVQSLEQQLELEKEKLGAMQAHLAGKMALAKAPSVASMDKSSCCIVATSTQGSVLPAWSAPREAPDGGLFAVRRHLWGSHGNSSFPEFFHNMDYFKYHNMRPPFTYATLIRWAILEAPERQRTLNEIYHWFTRMFAYFRNHPATWKNAIRHNLSLHKCFVRVESEKGAVWTVDEFEFRKKR
In the case of B1, the binding is reported as “binds”.

— paper doi:10.1101/2025.08.13.669552
